In the supplement of paper PMC4604168 (melanoma cell lines):
This is one part of the list. Single values are uncertain, as repeats are few or missing.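 Imaging used 1,536-well plates; nuclei positive for cleaved PARP by antibody were divided by total DNA-stained nuclei to yield the apoptosis fraction. Doses for screening kept most cells viable, and cell lines differ markedly in resting and induced cleaved-PARP levels.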

Tests used:
Test in all cases: cleaved PARP positive nuclei fraction relative to DMSO control; melanoma cells; higher = more apoptosis
Settings in all cases: library dose: low library concentration; 72 h
MZ2-MEL = test system: MZ2-MEL
MeWo = test system: MeWo
RPMI7951 = test system: RPMI7951
RVH-421 = test system: RVH-421
SkMel28 = test system: SkMel28
SkMel30 = test system: SkMel30
SkMel5 = test system: SkMel5
UACC257 = test system: UACC257
UACC62 = test system: UACC62
WM115 = test system: WM115
WM1716 = test system: WM1716
WM1745 = test system: WM1745
WM3526 = test system: WM3526
WM3619 = test system: WM3619
WM451Lu = test system: WM451Lu

| Compound | cleaved PARP positive nuclei fraction (MZ2-MEL) [%] | cleaved PARP positive nuclei fraction (MeWo) [%] | cleaved PARP positive nuclei fraction (RPMI7951) [%] | cleaved PARP positive nuclei fraction (RVH-421) [%] | cleaved PARP positive nuclei fraction (SkMel28) [%] | cleaved PARP positive nuclei fraction (SkMel30) [%] | cleaved PARP positive nuclei fraction (SkMel5) [%] | cleaved PARP positive nuclei fraction (UACC257) [%] | cleaved PARP positive nuclei fraction (UACC62) [%] | cleaved PARP positive nuclei fraction (WM115) [%] | cleaved PARP positive nuclei fraction (WM1716) [%] | cleaved PARP positive nuclei fraction (WM1745) [%] | cleaved PARP positive nuclei fraction (WM3526) [%] | cleaved PARP positive nuclei fraction (WM3619) [%] | cleaved PARP positive nuclei fraction (WM451Lu) [%] |
| --- | --- | --- | --- | --- | --- | --- | --- | --- | --- | --- | --- | --- | --- | --- | --- |
| Cc1cc([N+](=O)[O-])ccc1NS(=O)(=O)c1cc(Cl)ccc1Cl + Cn1cc(/C=C2\C(=O)Nc3cccnc32)c2ccccc21 [GW441756] (first compound 1 µM, partner dose 0.4 µM) | 137 | 27.2 | 67 | 87.4 | 79.4 | 23.5 | 78.9 | 145 | 171 | 96.3 | 98.8 | 108 | 127 | 109 | 84.2 |
| NCC(=O)Nc1ccc(-n2nc(C(F)(F)F)cc2-c2ccc3c(ccc4ccccc43)c2)cc1 + COc1cc2ncnc(Nc3ccc(Oc4ccccc4)cc3)c2cc1OC [SrcI1] (first compound 1 µM, partner dose 2 µM) | 144 | 134 | 69.5 | 58.1 | 167 | 865 | 33.9 | 58.8 | 62.6 | 56.1 | 391 | 101 | 362 | 95.3 | 242 |
| CCN(CC)CCCCNc1ncc2cc(-c3cc(OC)cc(OC)c3)c(NC(=O)NC(C)(C)C)nc2n1 + Oc1nc(-c2ccc(C(F)(F)F)cc2)nc2c1CSCC2 [XAV939] (first compound 0.1 µM, partner dose 2 µM) | 44.1 | 89.7 | 84.5 | 25.5 | 121 | 38.5 | 78.4 | 277 | 171 | 194 | 190 | 116 | 130 | 85.2 | 102 |
| COC(=O)c1sccc1S(=O)(=O)Nc1ccc(Nc2ccccc2)cc1OC + CC(C)CCN1c2nc(Nc3cc(F)c(O)c(F)c3)ncc2N(C)C(=O)C1C [BID1870] (first compound 1 µM, partner dose 0.2 µM) | 23.4 | 58.1 | 146 | 32.3 | 177 | 40.5 | 92.4 | 119 | 206 | 69.3 | 112 | 85.7 | 81.7 | 87 | 60.3 |
| Oc1cc(-c2nc(-c3ccccc3)[nH]c2-c2ccncc2)ccc1Cl + c1cc(-c2cnn3cc(-c4ccc(OCCN5CCCCC5)cc4)cnc23)ccn1 [Dorsomorphin] (first compound 0.2 µM, partner dose 0.4 µM) | 81.8 | 114 | 41.3 | 151 | 131 | 112 | 70.3 | 252 | 276 | 393 | 66.7 | 113 | 116 | 83.5 | 63.4 |
| COc1ccc(COc2ccc(Cc3cnc(N)nc3N)cc2OC)cc1 + COc1cc2ncnc(Nc3ccc(Oc4ccccc4)cc3)c2cc1OC [SrcI1] (first compound 1 µM, partner dose 2 µM) | 74.1 | 28.2 | 57.8 | 363 | 187 | 13.6 | 58.3 | 164 | 233 | 60.1 | 58.3 | 122 | 120 | 90.8 | 183 |
| N#Cc1c(O)c2c(-c3ccc(-c4ccccc4O)cc3)csc2[nH]c1=O + COc1ccc(-c2ccc3c(N4CCOCC4)nc(N4C[C@@H](C)O[C@@H](C)C4)nc3n2)cc1CO [KU0063794] (first compound 2 µM, partner dose 0.02 µM) | 233 | 55 | 36.9 | 98.9 | 140 | 108 | 57.5 | 98 | 37.4 | 236 | 72.1 | 99.1 | 75.4 | 77.7 | 65.6 |
| CCc1ccc(CCOc2ccc(CC3SC(=O)NC3=O)cc2)nc1 (stereo not given) [pioglitazone] + Oc1cc(-c2nc(-c3ccccc3)[nH]c2-c2ccncc2)ccc1Cl [L779450] (first compound 2 µM, partner dose 0.2 µM) | 76.6 | 36.6 | 243 | 103 | 190 | 139 | 148 | 285 | 358 | 126 | 75.9 | 116 | 81.5 | 75.3 | 78.4 |
| CN(C)S(=O)(=O)c1ccc2c(c1)/C(=C/c1cc3c([nH]1)CCCC3)C(=O)N2 + CCN(CC)CCCCNc1ncc2cc(-c3cc(OC)cc(OC)c3)c(NC(=O)NC(C)(C)C)nc2n1 [PD173074] (first compound 0.4 µM, partner dose 0.1 µM) | 252 | 28.6 | 45.4 | 109 | 94.4 | 15.3 | 37.4 | 268 | 134 | 246 | 82 | 109 | 243 | 68.5 | 87.1 |
| NCC(=O)Nc1ccc(-n2nc(C(F)(F)F)cc2-c2ccc3c(ccc4ccccc43)c2)cc1 + CCCCCCCCCCCC1=C(O)C(=O)C=C(O)C1=O [Embelin] (first compound 1 µM, partner dose 1.2 µM) | 182 | 102 | 106 | 156 | 88.5 | 64.2 | 57.2 | 35 | 39.6 | 145 | 91.4 | 111 | 139 | 90.9 | 122 |
| O=C1NC(=O)/C(=C/c2ccc(-c3ccc(F)cc3O)o2)S1 + Oc1nc(-c2ccc(C(F)(F)F)cc2)nc2c1CSCC2 [XAV939] (first compound 1 µM, partner dose 2 µM) | 60 | 137 | 156 | 139 | 145 | 42 | 91.8 | 142 | 93.5 | 155 | 172 | 111 | 78 | 91.3 | 88.9 |
| N#Cc1c(O)c2c(-c3ccc(-c4ccccc4O)cc3)csc2[nH]c1=O + CC(C)CCN1c2nc(Nc3cc(F)c(O)c(F)c3)ncc2N(C)C(=O)C1C [BID1870] (first compound 2 µM, partner dose 0.2 µM) | 99.2 | 103 | 76.1 | 110 | 134 | 33.8 | 79.3 | 67.2 | 202 | 103 | 55.4 | 104 | 214 | 72.3 | 118 |
| CN(NC(=O)CC(=O)NN(C)C(=S)c1ccccc1)C(=S)c1ccccc1 + COc1ccc(-c2ccc3c(N4CCOCC4)nc(N4C[C@@H](C)O[C@@H](C)C4)nc3n2)cc1CO [KU0063794] (first compound 0.006 µM, partner dose 0.02 µM) | 92 | 101 | 40.6 | 237 | 96.1 | 365 | 128 | 87.2 | 190 | 248 | 134 | 177 | 135 | 133 | 83.5 |
| c1cc(-c2cnn3cc(-c4ccc(OCCN5CCCCC5)cc4)cnc23)ccn1 [Dorsomorphin] + Cn1cc(/C=C2\C(=O)Nc3cccnc32)c2ccccc21 [GW441756] (first compound 0.4 µM, partner dose 0.4 µM) | 75.9 | 129 | 144 | 127 | 107 | 53.5 | 87.5 | 248 | 85.7 | 74.1 | 68 | 124 | 63 | 74.1 | 204 |
| O=S(=O)(c1ccccc1)N(CC(F)(F)F)c1ccc(C(O)(C(F)(F)F)C(F)(F)F)cc1 + O=C1NC(=O)/C(=C/c2ccc(-c3ccc(F)cc3O)o2)S1 [AS252424] (first compound 1.4 µM, partner dose 1 µM) | 72.3 | 86.5 | 114 | 148 | 232 | 16 | 48.6 | 41.9 | 36.3 | 182 | 123 | 130 | 74.5 | 114 | 37.5 |
| O=C(Nc1ccccc1)c1cc([N+](=O)[O-])ccc1Cl + COc1ccc(COc2ccc(Cc3cnc(N)nc3N)cc2OC)cc1 [GW2580] (first compound 2 µM, partner dose 1 µM) | 83.9 | 72.9 | 100 | 48.2 | 81.7 | 46.1 | 198 | 100 | 117 | 48.1 | 84.2 | 97.9 | 65.8 | 65.3 | 154 |
| O=C(O)c1ccc(-c2c[nH]c3ncc(-c4ccccc4)cc23)cc1C1CCCC1 + O=S(=O)(c1ccccc1)N(CC(F)(F)F)c1ccc(C(O)(C(F)(F)F)C(F)(F)F)cc1 [T0901317] (first compound 0.16 µM, partner dose 1.4 µM) | 90.6 | 82.5 | 78 | 54.5 | 47.7 | 42.2 | 54.3 | 32 | 254 | 50.3 | 182 | 116 | 64 | 104 | 126 |
| CN(NC(=O)CC(=O)NN(C)C(=S)c1ccccc1)C(=S)c1ccccc1 + COC(=O)c1sccc1S(=O)(=O)Nc1ccc(Nc2ccccc2)cc1OC [GSK0660] (first compound 0.006 µM, partner dose 1 µM) | 89.5 | 180 | 79.7 | 35.3 | 116 | 125 | 402 | 159 | 35.9 | 67.9 | 118 | 222 | 65.8 | 236 | 153 |
| COc1cc2c(Oc3ccc4[nH]c(C)cc4c3F)ncnc2cc1OCCCN1CCCC1 [cediranib] + COC(=O)c1sccc1S(=O)(=O)Nc1ccc(Nc2ccccc2)cc1OC [GSK0660] (first compound 0.4 µM, partner dose 1 µM) | 43.8 | 196 | 87.8 | 51.3 | 71.8 | 42 | 39.4 | 149 | 41.6 | 152 | 102 | 115 | 76.5 | 79.9 | 38.6 |
| O=S(=O)(c1ccccc1)N(CC(F)(F)F)c1ccc(C(O)(C(F)(F)F)C(F)(F)F)cc1 + O=c1cc(-c2cccc3c2Sc2ccccc2S3)oc(N2CCOCC2)c1 [KU55933] (first compound 1.4 µM, partner dose 1 µM) | 112 | 56.6 | 86.5 | 80.1 | 124 | 21.3 | 99.5 | 93.3 | 166 | 165 | 116 | 86.6 | 74.6 | 64 | 31.9 |
| O=S(=O)(c1ccccc1)N(CC(F)(F)F)c1ccc(C(O)(C(F)(F)F)C(F)(F)F)cc1 + Oc1nc(-c2ccc(C(F)(F)F)cc2)nc2c1CSCC2 [XAV939] (first compound 1.4 µM, partner dose 2 µM) | 175 | 56 | 73.4 | 18.6 | 91.7 | 26.2 | 42.9 | 76 | 58.5 | 75.8 | 206 | 134 | 73.8 | 99.4 | 243 |

5 entries from above, tab-delimited:
Compound	cleaved PARP positive nuclei fraction (MZ2-MEL) [%]	cleaved PARP positive nuclei fraction (MeWo) [%]	cleaved PARP positive nuclei fraction (RPMI7951) [%]	cleaved PARP positive nuclei fraction (RVH-421) [%]	cleaved PARP positive nuclei fraction (SkMel28) [%]	cleaved PARP positive nuclei fraction (SkMel30) [%]	cleaved PARP positive nuclei fraction (SkMel5) [%]	cleaved PARP positive nuclei fraction (UACC257) [%]	cleaved PARP positive nuclei fraction (UACC62) [%]	cleaved PARP positive nuclei fraction (WM115) [%]	cleaved PARP positive nuclei fraction (WM1716) [%]	cleaved PARP positive nuclei fraction (WM1745) [%]	cleaved PARP positive nuclei fraction (WM3526) [%]	cleaved PARP positive nuclei fraction (WM3619) [%]	cleaved PARP positive nuclei fraction (WM451Lu) [%]
NCC(=O)Nc1ccc(-n2nc(C(F)(F)F)cc2-c2ccc3c(ccc4ccccc43)c2)cc1 + CCCCCCCCCCCC1=C(O)C(=O)C=C(O)C1=O [Embelin] (first compound 1 µM, partner dose 1.2 µM)	182	102	106	156	88.5	64.2	57.2	35	39.6	145	91.4	111	139	90.9	122
O=C1NC(=O)/C(=C/c2ccc(-c3ccc(F)cc3O)o2)S1 + Oc1nc(-c2ccc(C(F)(F)F)cc2)nc2c1CSCC2 [XAV939] (first compound 1 µM, partner dose 2 µM)	60	137	156	139	145	42	91.8	142	93.5	155	172	111	78	91.3	88.9
N#Cc1c(O)c2c(-c3ccc(-c4ccccc4O)cc3)csc2[nH]c1=O + CC(C)CCN1c2nc(Nc3cc(F)c(O)c(F)c3)ncc2N(C)C(=O)C1C [BID1870] (first compound 2 µM, partner dose 0.2 µM)	99.2	103	76.1	110	134	33.8	79.3	67.2	202	103	55.4	104	214	72.3	118
CN(NC(=O)CC(=O)NN(C)C(=S)c1ccccc1)C(=S)c1ccccc1 + COc1ccc(-c2ccc3c(N4CCOCC4)nc(N4C[C@@H](C)O[C@@H](C)C4)nc3n2)cc1CO [KU0063794] (first compound 0.006 µM, partner dose 0.02 µM)	92	101	40.6	237	96.1	365	128	87.2	190	248	134	177	135	133	83.5
c1cc(-c2cnn3cc(-c4ccc(OCCN5CCCCC5)cc4)cnc23)ccn1 [Dorsomorphin] + Cn1cc(/C=C2\C(=O)Nc3cccnc32)c2ccccc21 [GW441756] (first compound 0.4 µM, partner dose 0.4 µM)	75.9	129	144	127	107	53.5	87.5	248	85.7	74.1	68	124	63	74.1	204
